3 compounds from US5378813A, “Meso-2,5-dimercapto-N,N,N'N'-tetramethyladipamide” (President and Fellows of Harvard College, priority 1992, dated 1995) can be followed below.

The structures appear in SMILES notation. “Also recorded” adds a separate entry of the source.

Data set [1] in a line: Reduction potential and equilibrium constant for reduction of ME^ox by the dithiol. To be noted: mercaptoethanol disulfide or glutathione disulfide (6 mM, 1.5-fold excess). The format is physicochemical. The method, then:
We used the equilibrium constant between meso-DTA and DTT to determine the values of ε° and K(ME) of meso-DTA.
After 4 h, a ^1 H NMR spectrum was obtained.

Another data set can be described thus: Odor. To be noted: for odor of the oxidized form: oxidized form containing a disulfide group (in parentheses); for odor: reduced (dithiol) form.

`CN(C)C(=O)[C@H](S)CC[C@H](S)C(=O)N(C)C` [meso-DTA, meso-2,5-Dimercapto-N,N,N',N'-tetramethyladipamide]: the “extent of reduction of noncyclic disulfides by 1H NMR” value in data set [1] is “oxidized completely; also recorded: completely reduces”. Besides, in the data set “Odor”, the “odor of the oxidized form” value was “none” and the odor result was “weak”.

For the compound `CN(C(=O)CS)N(C)C(=O)CS` [DMH, N,N'-dimethyl-N,N'-bis(mercaptoacetyl) hydrazine, reference compound], in the data set “Odor”, the “odor of the oxidized form” value is “none” and the odor entry was “weak”.

With `O[C@H](CS)[C@H](O)CS` (racemic) [DTT, dithiothreitol, reference compound], in the data set “Odor”, the “odor of the oxidized form” value was “none” and the odor entry is recorded as “weak”.
